Some of the results follow. Further columns of the screen follow, without active or inactive calls. Most of these compounds were active or inconclusive in the main read-out, so they are no random draw. Words in brackets tell the shape of the fitted curve; partial curves, single points and poor fits give uncertain potencies.
Experiment: Cell signaling CRE-BLA (Fsk stim)
Details: CHO CRE-bla reporter (cAMP response element driving beta-lactamase), forskolin EC10, beta-lactamase ratio; measured here: 460 nm blue channel
Summary of the method: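 Modulation of forskolin-driven signalling is measured in CHO cells carrying a CRE-controlled beta-lactamase reporter. Cells are stimulated with EC10 NKH 477 in the presence of titrated compound for 3 h at 37 °C, then loaded with CCF4 for 2 h at room temperature.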

Compound | AC50
COc1ccccc1CNc1ncnc2ccc(-c3cccnc3)cc12 | 2.51 µM [rising, full curve]
CCOC(=O)c1c(NC(=O)C(F)(OC)C(F)(F)F)sc(C(=O)N2CCCCC2)c1C (configuration not stated) | 10 µM [rising, partial curve]
COc1ccc(-c2nn3c(-c4cccc(C)c4)nnc3s2)cc1OC | 5.01 µM [rising, partial curve]
CC1CCN(c2oc(-c3ccccc3F)nc2C#N)CC1 | 3.98 µM [rising, full curve]
COc1ccc(N2CCN(C(=O)CSc3ccccc3)CC2)cc1 | 0.398 µM [falling, partial curve]
Cc1cc2oc(=O)cc(CN3CCCCC3)c2cc1C(C)C | 2.51 µM [rising, single point]
O=C(Nc1ccc(N2CCCC2)c(Cl)c1)c1ccco1 | 0.631 µM [rising, single point]
O=C(NC(C(=O)c1ccccc1)N1CCOCC1)c1cccs1 (configuration not stated) | 0.1 µM [falling, full curve]
CCOC(=O)C1CCCn2c1nc1sc3c(c1c2=O)CCCC3 (configuration not stated) | 25.1 µM [rising, single point]
Cc1cccc(NCc2ccccc2O)c1 | 0.398 µM [falling, partial curve]
CN(C)c1nc(N)nc(CSc2nc3cc(Cl)ccc3o2)n1 | 2.51 µM [rising, full curve]
O=C(c1cccc(F)c1)N1CCN(S(=O)(=O)c2ccccc2)CC1 | 12.6 µM [rising, single point]
Cc1nc2cnc(N3CCOCC3)nc2n(CCC#N)c1=O | 25.1 µM [rising, single point]
O=C(O)/C=C1\CCCc2ccccc2[C@H]1O | 31.6 µM [falling, single point]
CC(=O)N1[C@H](C)C=C[C@]1(Cc1ccccc1)C(=O)NCc1ccc(C)o1 | 12.6 µM [falling, single point]
COc1ccc(OC)c(CNc2nc3ccccc3n2CCN2CCCCC2)c1 | 3.16 µM [falling, partial curve]
CC(C)(C)NC[C@H](O)COc1cccc2[nH]c(=O)[nH]c12 | 31.6 µM [falling, single point]
Cn1c(=O)c(-c2ccc(F)cc2)nc2cncnc21 | 12.6 µM [rising, single point]
CC(NC(=O)c1ccc(F)cc1)C(c1cccs1)N1CCN(C)CC1 (configuration not stated) | 1 µM [rising, partial curve]
CNc1nnc(CSc2nc3ccccc3s2)s1 | 12.6 µM [rising, single point]
CC1CCN(c2nc3ccccc3nc2C(C#N)C(=O)OC2CCCCC2)CC1 (configuration not stated) | 12.6 µM [rising, single point]
CC(C)CCn1c(N)c(S(=O)(=O)c2cccs2)c2nc3ccccc3nc21 | 10 µM [rising, partial curve]
CC(=O)Nc1ccc(-c2cn3cccnc3n2)cc1 | 0.0794 µM [falling, full curve]

Compound | AC50
Cc1ccsc1C(=O)OCC(=O)NCC1CCCO1 (configuration not stated) | 3.98 µM [falling, single point]
N=C(N)c1ccc(-c2ccc(-c3ccc(C(=N)N)cc3)o2)cc1 | 1.58 µM [rising, partial curve, poor fit]
Cc1cc(Nc2nnnn2-c2ccccc2)n(-c2ccc(Cl)cc2)n1 | 3.16 µM [falling, full curve]
COC(=O)[C@@]1(Cc2ccccc2)[C@H]2c3cc(C(=O)N(C)C)n(Cc4ccc(OC)c(OC)c4)c3C[C@H]2CN1C(=O)c1ccccc1 | 2 µM [rising, full curve]
CN1CCN(c2ncc3nc(-c4cn(C)c5ccccc45)c(=O)n(C)c3n2)CC1 | 10 µM [rising, partial curve]
Cn1c(=N)n(CC(=O)C(C)(C)C)c2ccccc21 | 10 µM [rising, partial curve]
CCCOc1ccc2oc(=O)c3c(c2c1)CCCN3C(=O)CN1CCN(C(=O)c2ccco2)CC1 | 12.6 µM [rising, single point]
COc1cc(C2CC(=O)N3CN(Cc4ccco4)CSC3=C2C#N)ccc1OCc1ccccc1 (configuration not stated) | 12.6 µM [falling, partial curve]
O=C(Cc1cccs1)N1CCCC(c2nc3c(nnn3Cc3ccccc3Cl)c(=O)[nH]2)C1 (configuration not stated) | 20 µM [rising, single point]
CCOC(=O)c1c(NC(=O)COC)sc2c1CCCC2 | 15.8 µM [rising, single point]
Cc1cccc(NC(=O)c2ccccc2O)c1C | 2.51 µM [rising, partial curve, poor fit]
O=C(NCc1ccco1)C1Cc2ccccc2CN1S(=O)(=O)c1ccccc1F (configuration not stated) | 5.01 µM [falling, partial curve]
Cn1c(=O)c2c(nc(NCCc3ccccc3)n2Cc2ccccc2)n(C)c1=O | 15.8 µM [falling, partial curve, poor fit]
CCCS(=O)(=O)NCCc1cc2cc(C)c(C)cc2[nH]c1=O | 3.98 µM [falling, single point]
COc1ncc2nc(-c3ccc(Cl)cc3)c(=O)n(CCc3ccccc3)c2n1 | 20 µM [rising, single point]
O=C(O)CCC(=O)Nc1ccc2c(c1)oc1ccccc12 | 12.6 µM [rising, single point]
COc1ccc(NS(=O)(=O)c2cc(C(=O)O)ccc2C)cc1 | 5.01 µM [falling, single point]
O=C1Nc2ccccc2SC(c2ccccc2)C1O (configuration not stated) | 25.1 µM [falling, single point]
CCOC(=O)c1[nH]c(C)c(C(=O)OCCN2C(=O)c3ccccc3C2=O)c1C | 1.58 µM [rising, full curve, poor fit]
COc1ccc(NC(=O)c2cccs2)cc1OC | 10 µM [rising, single point]
COc1ccc(Br)cc1C(=O)NCc1cccnc1 | 5.01 µM [rising, partial curve]
CCN(CC)C(=O)CSc1nc2cccnc2n1-c1ccccc1OC | 12.6 µM [rising, partial curve, poor fit]
CC1CCc2c(sc3ncnc(SCC(=O)N4CCN(C(=O)c5ccco5)CC4)c23)C1 (configuration not stated) | 25.1 µM [falling, single point]

3 consecutive entries from above, for reference:
Compound | AC50
CN1CCN(c2ncc3nc(-c4cn(C)c5ccccc45)c(=O)n(C)c3n2)CC1 | 10 µM [rising, partial curve]
Cn1c(=N)n(CC(=O)C(C)(C)C)c2ccccc21 | 10 µM [rising, partial curve]
CCCOc1ccc2oc(=O)c3c(c2c1)CCCN3C(=O)CN1CCN(C(=O)c2ccco2)CC1 | 12.6 µM [rising, single point]

(list continues)

Compound | AC50
COc1cc2c(cc1NC(=O)COC(=O)Cn1cnc3ccccc31)oc1ccccc12 | 3.98 µM [falling, partial curve]
Cc1cc(C)n(CC(O)CN2C(=O)NC(C)(C)C2=O)n1 (configuration not stated) | 3.98 µM [falling, single point]
COC(=O)[C@@]1(Cc2ccc(F)cc2)[C@H]2c3cc(C(=O)N(C)C)n(Cc4ccc(C(F)(F)F)nc4)c3C[C@H]2CN1C(=O)c1ccccc1 | 15.8 µM [rising, partial curve, poor fit]
O=C(CCCCn1c(=O)[nH]c2ccccc2c1=O)N1CCN(c2cccc(C(F)(F)F)c2)CC1 | 31.6 µM [falling, partial curve, poor fit]
CCc1c(C)sc(NC(=O)c2cccs2)c1C(=O)OC(C)C | 2.51 µM [rising, full curve]
CC[C@H](C(=O)[C@H](C)[C@H](O)[C@H](C)CCc1ccc(C)c(O)c1C(=O)O)[C@H]1O[C@](CC)([C@@H]2CC[C@@](O)(CC)[C@H](C)O2)C[C@H]1C | 3.16 µM [falling, partial curve]
CCCCC(OC(=O)c1cc2occc2n1C)C(=O)NCC1CCCO1 (configuration not stated) | 0.00794 µM [falling, full curve, poor fit]
COc1ccc(S(=O)(=O)N2CCc3ccccc32)cc1C(=O)OCc1c(C)noc1C | 3.16 µM [rising, full curve]
CN1[C@@H]2CC[C@H]1CC(OC(=O)[C@@H](CO)c1ccccc1)C2 (some centres not stated) | 31.6 µM [falling, single point]
COC(=O)c1cc(NC(=O)CN(c2ccc3c(c2)OCO3)S(C)(=O)=O)ccc1Cl | 10 µM [rising, partial curve]
Cc1oc(-c2cccs2)nc1CS(=O)CC(=O)NC1CCCCCC1 (configuration not stated) | 10 µM [falling, partial curve]
O=C(NCc1ccc2c(c1)OCO2)c1cc(-n2cnnc2)ccc1Cl | 25.1 µM [rising, single point]
Cc1nc2cnc(N(C)C)nc2n(CCc2ccccc2)c1=O | 12.6 µM [rising, partial curve]
CCCn1c(SCc2ccccn2)nc2c1c(=O)n(C)c(=O)n2C | 12.6 µM [rising, partial curve]
CS(=O)(=O)N1CCCC(C(=O)NCCCN2CCOCC2)C1 (configuration not stated) | 0.0794 µM [rising, full curve]
COCCCNC(=O)c1ccc2nc3ccccc3c(=O)n2c1 | 5.01 µM [rising, partial curve]
CCOC(=O)c1c(NC(=O)c2csc(C)c2)sc(C(C)=O)c1C | 6.31 µM [rising, single point]
COc1ccc2cc3cc(C(=O)N4CCN(Cc5ccc6c(c5)OCO6)CC4)oc3nc2c1 | 15.8 µM [falling, partial curve, poor fit]
CC1Cc2ccccc2N1C(=O)CSc1nnc2n1C(C)(C)Cc1ccccc1-2 (configuration not stated) | 12.6 µM [rising, single point]
COC(=O)c1sccc1NC(=O)c1csc(C)c1 | 25.1 µM [rising, single point]
CCn1c(C(=O)N2CCC(C(=O)NCCCSC3CCCCC3)CC2)cc2sccc21 | 25.1 µM [falling, single point]
